Data taken from article PMC10850104.
No constants are given. Whether binding was seen depends on the method and setting. Binding seen in cells or lysates may run through a third protein. Some binding calls cover weakened binding; strength is not graded here. Each block holds one molecule with its values, some of them ahead of it.

Chains of the proteins cited; added tags and fusions are not shown. Residues count along the entry.
UniProt P19022, residues 160-906: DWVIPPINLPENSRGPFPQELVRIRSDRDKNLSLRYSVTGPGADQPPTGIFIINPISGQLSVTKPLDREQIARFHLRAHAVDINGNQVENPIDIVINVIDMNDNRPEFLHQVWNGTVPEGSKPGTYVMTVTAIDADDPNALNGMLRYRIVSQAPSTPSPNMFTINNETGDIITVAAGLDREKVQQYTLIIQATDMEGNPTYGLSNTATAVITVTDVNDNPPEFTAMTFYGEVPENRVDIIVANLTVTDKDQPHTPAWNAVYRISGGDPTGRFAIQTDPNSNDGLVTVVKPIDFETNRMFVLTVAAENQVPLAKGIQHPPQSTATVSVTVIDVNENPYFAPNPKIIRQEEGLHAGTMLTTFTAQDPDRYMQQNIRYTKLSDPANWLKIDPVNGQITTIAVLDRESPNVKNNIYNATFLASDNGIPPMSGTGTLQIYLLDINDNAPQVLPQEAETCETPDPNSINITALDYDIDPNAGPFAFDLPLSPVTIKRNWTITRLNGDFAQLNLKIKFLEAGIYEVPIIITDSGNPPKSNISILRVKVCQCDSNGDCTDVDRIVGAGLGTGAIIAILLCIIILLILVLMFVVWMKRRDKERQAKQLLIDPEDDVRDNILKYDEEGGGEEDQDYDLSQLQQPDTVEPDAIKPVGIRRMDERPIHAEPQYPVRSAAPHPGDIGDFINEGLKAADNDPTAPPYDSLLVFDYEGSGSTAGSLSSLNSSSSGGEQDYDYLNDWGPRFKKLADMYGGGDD
UniProt P35222: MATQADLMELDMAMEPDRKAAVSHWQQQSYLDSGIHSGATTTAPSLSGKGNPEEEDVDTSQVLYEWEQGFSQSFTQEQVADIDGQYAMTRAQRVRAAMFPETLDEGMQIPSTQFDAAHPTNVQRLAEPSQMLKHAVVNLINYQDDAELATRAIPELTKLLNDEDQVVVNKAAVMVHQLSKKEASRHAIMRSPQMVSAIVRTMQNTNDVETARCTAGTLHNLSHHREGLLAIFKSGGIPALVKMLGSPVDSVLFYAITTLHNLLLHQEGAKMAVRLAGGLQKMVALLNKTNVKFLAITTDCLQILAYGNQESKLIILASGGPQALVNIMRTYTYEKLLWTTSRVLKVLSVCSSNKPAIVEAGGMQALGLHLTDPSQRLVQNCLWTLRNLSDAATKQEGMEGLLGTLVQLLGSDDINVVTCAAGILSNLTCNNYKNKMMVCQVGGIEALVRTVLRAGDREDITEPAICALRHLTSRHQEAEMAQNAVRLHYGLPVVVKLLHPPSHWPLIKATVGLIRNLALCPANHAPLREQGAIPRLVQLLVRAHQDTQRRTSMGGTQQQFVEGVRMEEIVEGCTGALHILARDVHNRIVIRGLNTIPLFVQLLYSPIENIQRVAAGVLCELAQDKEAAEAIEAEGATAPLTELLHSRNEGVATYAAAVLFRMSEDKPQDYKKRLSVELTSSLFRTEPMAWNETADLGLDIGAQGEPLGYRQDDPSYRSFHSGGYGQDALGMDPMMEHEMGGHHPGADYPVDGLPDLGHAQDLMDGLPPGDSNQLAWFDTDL

What was measured:
[1] = target: N-cadherin (human (endogenous in WM793)) (UniProt P19022); test: proximity ligation; PLA on paraffin sections of a human melanoma tissue microarray (ME1004h) after antigen retrieval; PLA foci counted per cell
[2] = target: N-cadherin (human (endogenous in WM793)) (UniProt P19022); test: co-IP; precleared lysates (400 μg) of shNT/shFUT4 WM793 cells, anti-N-cadherin or control IgG, protein A/G agarose beads, 4 °C, washed with PBS, immunoblot
[3] = target: N-cadherin (human (endogenous in WM793)) (UniProt P19022); test: proximity ligation; Duolink in situ PLA with two primary antibodies on fixed, permeabilised coverslip-grown melanoma cells (WM793); EV/FUT4-OE, shNT/shFUT4, 2FF, ARi, AR knockdown, DHT; foci per cell counted

- binding [1]: binds
- binding [2]: binds
- binding [3]: binds
Molecule: β-catenin (from UniProt P35222 1-781)

- binding [3]: binds
B1: δ1-catenin (protein, UniProt O60716 1-968)
chain: MDDSEVESTASILASVKEQEAQFEKLTRALEEERRHVSAQLERVRVSPQDANPLMANGTLTRRHQNGRFVGDADLERQKFSDLKLNGPQDHSHLLYSTIPRMQEPGQIVETYTEEDPEGAMSVVSVETSDDGTTRRTETTVKKVVKTVTTRTVQPVAMGPDGLPVDASSVSNNYIQTLGRDFRKNGNGGPGPYVGQAGTATLPRNFHYPPDGYSRHYEDGYPGGSDNYGSLSRVTRIEERYRPSMEGYRAPSRQDVYGPQPQVRVGGSSVDLHRFHPEPYGLEDDQRSMGYDDLDYGMMSDYGTARRTGTPSDPRRRLRSYEDMIGEEVPSDQYYWAPLAQHERGSLASLDSLRKGGPPPPNWRQPELPEVIAMLGFRLDAVKSNAAAYLQHLCYRNDKVKTDVRKLKGIPVLVGLLDHPKKEVHLGACGALKNISFGRDQDNKIAIKNCDGVPALVRLLRKARDMDLTEVITGTLWNLSSHDSIKMEIVDHALHALTDEVIIPHSGWEREPNEDCKPRHIEWESVLTNTAGCLRNVSSERSEARRKLRECDGLVDALIFIVQAEIGQKDSDSKLVENCVCLLRNLSYQVHREIPQAERYQEAAPNVANNTGPHAASCFGAKKGKDEWFSRGKKPIEDPANDTVDFPKRTSPARGYELLFQPEVVRIYISLLKESKTPAILEASAGAIQNLCAGRWTYGRYIRSALRQEKALSAIADLLTNEHERVVKAASGALRNLAVDARNKELIGKHAIPNLVKNLPGGQQNSSWNFSEDTVISILNTINEVIAENLEAAKKLRETQGIEKLVLINKSGNRSEKEVRAAALVLQTIWGYKELRKPLEKEGWKKSDFQVNLNNASRSQSSHSYDDSTLPLIDRNQKSDKKPDREEIQMSNMGSNTKSLDNNYSTPNERGDHNRTLDRSGDLGDMEPLKGTTPLMQDEGQESLEEELDVLVLDDEGGQVSYPSMQKI
